Data reported in the supplement of paper PMC12823440, “Inhibitors supercharge kinase turnover through native proteolytic circuits” (Nature, 2025).
Where a name gives a salt, the structure may show the parent alone. The list shows a part of the results. The calls rarely recur for the same compound in another form.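 Kinases, fused to nanoluciferase, were expressed in K562 cells; luminescence was measured every 4 h from 2 to 18 h as percent of control (DMSO = 100%, positive control = 0%). A time point is decreased if signal falls significantly (2 sigma). Hits were called by the authors by a rule that is not shown; the count of time points alone does not decide it.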

Amino acid sequences for entries named in this document (tags omitted). A change or cut given only in a name is not applied to a line headed by its entry.
UniProt Q16288, whole entry, looked up: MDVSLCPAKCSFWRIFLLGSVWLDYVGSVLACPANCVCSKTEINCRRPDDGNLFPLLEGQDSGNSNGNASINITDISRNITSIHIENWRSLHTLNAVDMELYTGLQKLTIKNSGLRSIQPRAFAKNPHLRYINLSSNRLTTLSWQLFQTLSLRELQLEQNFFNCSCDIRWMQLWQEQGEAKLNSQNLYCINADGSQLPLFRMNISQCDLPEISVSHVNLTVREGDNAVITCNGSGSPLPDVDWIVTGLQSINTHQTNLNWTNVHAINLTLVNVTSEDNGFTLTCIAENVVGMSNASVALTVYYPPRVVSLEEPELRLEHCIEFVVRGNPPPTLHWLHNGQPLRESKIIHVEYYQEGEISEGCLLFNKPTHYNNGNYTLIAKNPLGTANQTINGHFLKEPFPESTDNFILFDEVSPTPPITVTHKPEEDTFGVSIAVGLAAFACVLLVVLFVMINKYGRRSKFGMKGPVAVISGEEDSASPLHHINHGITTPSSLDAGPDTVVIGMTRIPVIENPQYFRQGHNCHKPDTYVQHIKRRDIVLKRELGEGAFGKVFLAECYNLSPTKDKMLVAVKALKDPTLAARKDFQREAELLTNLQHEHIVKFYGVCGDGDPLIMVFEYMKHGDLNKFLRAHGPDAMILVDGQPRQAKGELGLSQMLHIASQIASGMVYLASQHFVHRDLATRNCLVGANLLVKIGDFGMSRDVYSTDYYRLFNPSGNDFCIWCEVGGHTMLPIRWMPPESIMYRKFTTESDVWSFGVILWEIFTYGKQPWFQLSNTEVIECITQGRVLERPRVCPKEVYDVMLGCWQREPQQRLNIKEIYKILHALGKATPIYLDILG
UniProt P09619, whole entry: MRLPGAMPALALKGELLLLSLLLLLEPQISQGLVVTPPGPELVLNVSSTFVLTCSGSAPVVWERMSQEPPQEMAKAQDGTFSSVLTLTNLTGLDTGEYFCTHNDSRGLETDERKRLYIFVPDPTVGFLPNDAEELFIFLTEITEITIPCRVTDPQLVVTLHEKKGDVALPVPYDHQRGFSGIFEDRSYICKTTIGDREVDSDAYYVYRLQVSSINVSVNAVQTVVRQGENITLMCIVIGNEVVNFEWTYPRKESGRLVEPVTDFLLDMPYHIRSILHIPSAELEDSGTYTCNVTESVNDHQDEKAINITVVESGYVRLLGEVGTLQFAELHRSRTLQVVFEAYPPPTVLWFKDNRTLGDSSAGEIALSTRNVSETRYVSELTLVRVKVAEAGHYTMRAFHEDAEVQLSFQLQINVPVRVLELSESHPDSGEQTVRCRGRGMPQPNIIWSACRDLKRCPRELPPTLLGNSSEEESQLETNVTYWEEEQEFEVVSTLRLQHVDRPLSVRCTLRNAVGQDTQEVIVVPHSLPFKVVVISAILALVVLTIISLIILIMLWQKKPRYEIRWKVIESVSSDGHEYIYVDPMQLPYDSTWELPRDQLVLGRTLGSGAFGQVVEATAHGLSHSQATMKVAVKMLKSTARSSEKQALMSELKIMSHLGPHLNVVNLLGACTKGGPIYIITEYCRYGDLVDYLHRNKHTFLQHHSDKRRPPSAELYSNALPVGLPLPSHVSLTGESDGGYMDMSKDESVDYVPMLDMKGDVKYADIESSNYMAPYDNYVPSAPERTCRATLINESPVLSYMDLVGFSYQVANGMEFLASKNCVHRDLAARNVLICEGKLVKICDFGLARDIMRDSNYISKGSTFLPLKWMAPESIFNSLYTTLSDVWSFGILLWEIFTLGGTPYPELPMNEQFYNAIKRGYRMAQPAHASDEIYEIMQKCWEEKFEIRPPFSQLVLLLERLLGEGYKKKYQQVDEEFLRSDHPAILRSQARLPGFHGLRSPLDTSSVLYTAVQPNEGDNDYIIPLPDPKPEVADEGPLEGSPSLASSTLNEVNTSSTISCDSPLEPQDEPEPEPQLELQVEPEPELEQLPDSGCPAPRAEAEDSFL
UniProt Q15118, whole entry, looked up: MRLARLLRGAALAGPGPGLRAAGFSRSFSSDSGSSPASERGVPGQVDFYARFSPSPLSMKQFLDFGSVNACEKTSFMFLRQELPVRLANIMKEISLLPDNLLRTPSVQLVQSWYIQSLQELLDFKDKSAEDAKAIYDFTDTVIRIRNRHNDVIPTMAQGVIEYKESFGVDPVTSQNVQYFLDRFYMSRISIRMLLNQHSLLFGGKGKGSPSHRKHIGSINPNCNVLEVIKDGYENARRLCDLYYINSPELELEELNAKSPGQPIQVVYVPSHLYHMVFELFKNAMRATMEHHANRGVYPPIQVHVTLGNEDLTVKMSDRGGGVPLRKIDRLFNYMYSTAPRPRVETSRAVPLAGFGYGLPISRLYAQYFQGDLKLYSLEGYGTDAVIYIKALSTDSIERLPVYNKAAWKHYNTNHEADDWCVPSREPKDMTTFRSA
UniProt P42356, whole entry, looked up: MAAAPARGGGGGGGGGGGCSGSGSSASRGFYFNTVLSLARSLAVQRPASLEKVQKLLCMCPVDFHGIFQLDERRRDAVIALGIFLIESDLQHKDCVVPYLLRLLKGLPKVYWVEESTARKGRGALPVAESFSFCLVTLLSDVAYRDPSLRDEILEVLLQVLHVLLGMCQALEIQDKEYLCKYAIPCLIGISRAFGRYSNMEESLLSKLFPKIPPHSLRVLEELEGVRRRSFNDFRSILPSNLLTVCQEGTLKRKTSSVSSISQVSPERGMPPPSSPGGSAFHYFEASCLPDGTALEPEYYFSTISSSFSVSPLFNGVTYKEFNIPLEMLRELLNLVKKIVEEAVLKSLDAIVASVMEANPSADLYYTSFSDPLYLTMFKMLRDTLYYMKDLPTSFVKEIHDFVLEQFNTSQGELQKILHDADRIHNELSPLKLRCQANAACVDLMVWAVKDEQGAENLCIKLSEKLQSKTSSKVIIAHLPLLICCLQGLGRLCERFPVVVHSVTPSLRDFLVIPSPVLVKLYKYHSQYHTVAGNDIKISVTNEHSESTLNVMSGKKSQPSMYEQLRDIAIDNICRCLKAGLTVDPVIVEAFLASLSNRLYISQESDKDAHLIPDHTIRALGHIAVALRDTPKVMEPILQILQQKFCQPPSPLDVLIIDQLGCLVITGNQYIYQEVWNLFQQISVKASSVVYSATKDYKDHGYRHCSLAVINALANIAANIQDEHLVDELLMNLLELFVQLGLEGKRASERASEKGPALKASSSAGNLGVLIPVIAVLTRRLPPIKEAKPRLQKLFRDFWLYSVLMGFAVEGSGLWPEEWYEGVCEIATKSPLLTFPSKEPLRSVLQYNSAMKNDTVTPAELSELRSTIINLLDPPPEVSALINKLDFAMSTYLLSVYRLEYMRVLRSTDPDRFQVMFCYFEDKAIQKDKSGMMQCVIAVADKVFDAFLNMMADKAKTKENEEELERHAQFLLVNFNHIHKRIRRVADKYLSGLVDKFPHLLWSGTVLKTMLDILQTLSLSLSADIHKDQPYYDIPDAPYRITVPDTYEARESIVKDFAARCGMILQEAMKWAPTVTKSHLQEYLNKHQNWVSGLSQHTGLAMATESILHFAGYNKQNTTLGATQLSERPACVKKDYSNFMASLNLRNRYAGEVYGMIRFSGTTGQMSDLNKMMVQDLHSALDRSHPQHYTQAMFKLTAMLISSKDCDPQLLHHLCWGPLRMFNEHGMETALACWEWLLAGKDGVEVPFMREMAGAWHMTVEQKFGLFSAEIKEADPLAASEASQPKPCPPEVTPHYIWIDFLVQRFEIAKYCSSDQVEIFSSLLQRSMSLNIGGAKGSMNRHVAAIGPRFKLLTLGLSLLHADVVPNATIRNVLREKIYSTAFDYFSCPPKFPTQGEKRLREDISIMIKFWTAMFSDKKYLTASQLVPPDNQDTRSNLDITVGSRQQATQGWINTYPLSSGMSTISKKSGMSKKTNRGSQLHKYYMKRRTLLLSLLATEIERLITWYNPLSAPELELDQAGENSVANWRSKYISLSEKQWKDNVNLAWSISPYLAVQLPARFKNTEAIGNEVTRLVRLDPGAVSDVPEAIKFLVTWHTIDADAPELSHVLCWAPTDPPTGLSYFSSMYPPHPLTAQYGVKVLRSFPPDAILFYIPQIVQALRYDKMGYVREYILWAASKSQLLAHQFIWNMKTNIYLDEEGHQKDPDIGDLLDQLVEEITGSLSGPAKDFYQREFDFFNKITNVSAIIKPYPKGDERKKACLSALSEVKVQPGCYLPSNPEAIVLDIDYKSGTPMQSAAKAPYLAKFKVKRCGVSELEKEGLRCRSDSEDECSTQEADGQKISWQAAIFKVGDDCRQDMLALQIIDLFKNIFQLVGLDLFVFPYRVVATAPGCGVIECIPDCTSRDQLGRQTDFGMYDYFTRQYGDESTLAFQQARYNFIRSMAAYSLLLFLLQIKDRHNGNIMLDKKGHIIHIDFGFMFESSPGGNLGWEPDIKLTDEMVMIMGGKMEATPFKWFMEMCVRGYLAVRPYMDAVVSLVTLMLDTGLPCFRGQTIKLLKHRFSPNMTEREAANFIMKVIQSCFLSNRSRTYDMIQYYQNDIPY
UniProt Q9UBF8: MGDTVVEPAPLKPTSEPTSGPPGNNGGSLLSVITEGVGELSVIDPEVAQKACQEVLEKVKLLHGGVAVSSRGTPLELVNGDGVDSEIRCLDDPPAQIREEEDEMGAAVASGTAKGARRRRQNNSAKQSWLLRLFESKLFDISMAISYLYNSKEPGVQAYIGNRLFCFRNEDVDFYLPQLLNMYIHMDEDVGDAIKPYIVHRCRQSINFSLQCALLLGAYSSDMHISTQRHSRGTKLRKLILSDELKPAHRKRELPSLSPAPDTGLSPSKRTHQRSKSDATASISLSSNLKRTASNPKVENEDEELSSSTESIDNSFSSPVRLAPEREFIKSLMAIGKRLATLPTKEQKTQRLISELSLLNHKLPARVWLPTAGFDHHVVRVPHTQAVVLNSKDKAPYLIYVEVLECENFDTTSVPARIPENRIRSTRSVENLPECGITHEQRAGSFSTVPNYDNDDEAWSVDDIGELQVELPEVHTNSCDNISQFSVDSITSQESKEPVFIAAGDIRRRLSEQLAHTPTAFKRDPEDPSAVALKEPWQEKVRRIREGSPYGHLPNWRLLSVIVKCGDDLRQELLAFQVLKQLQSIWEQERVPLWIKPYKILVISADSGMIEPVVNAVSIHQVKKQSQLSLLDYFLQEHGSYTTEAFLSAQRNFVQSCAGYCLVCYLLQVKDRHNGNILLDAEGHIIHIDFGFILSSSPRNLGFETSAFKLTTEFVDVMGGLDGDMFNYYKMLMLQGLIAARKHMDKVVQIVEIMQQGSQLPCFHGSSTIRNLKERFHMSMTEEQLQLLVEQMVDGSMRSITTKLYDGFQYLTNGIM
UniProt Q9BRS2: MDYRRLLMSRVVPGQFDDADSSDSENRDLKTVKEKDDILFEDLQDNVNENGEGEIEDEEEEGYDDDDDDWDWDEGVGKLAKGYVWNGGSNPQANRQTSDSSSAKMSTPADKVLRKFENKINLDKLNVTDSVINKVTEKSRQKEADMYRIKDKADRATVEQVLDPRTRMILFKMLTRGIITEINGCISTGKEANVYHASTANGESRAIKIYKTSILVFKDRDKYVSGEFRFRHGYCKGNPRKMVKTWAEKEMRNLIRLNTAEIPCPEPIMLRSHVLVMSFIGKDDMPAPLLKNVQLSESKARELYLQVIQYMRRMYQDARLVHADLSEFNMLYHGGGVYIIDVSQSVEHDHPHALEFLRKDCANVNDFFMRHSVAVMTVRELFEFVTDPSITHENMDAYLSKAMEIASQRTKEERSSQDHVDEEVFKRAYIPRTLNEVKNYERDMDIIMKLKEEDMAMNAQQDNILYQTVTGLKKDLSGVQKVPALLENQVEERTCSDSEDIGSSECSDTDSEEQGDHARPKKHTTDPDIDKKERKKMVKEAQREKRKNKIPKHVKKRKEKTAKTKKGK
UniProt Q13546: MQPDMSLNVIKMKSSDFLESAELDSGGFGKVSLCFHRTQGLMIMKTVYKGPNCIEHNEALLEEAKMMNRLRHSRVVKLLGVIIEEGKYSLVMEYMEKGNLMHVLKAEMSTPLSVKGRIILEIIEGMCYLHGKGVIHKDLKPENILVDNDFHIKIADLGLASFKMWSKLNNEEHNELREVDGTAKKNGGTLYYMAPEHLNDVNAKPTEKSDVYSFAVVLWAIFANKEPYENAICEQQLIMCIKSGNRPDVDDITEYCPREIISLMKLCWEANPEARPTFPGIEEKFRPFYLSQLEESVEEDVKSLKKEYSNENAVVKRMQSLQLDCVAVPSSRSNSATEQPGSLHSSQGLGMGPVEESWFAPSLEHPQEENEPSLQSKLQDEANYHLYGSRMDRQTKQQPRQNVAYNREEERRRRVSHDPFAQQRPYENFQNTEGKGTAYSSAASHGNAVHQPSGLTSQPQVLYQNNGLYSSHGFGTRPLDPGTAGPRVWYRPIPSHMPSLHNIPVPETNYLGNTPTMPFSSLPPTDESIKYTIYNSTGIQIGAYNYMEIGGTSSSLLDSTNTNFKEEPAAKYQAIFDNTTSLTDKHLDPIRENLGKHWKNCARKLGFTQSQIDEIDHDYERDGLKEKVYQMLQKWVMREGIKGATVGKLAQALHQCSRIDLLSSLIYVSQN

Key:
Assay in all cases: number of time points (of 5) at which kinase-Nluc abundance scored as decreased, DMSO-normalised (count); higher = more persistent destabilization
Conditions in all cases: K562; 2-18 h
[1] = molecular target: NTRK3 (UniProt Q16288)
[2] = molecular target: PAK4 (UniProt O96013)
[3] = molecular target: PBK (UniProt Q96KB5)
[4] = molecular target: PDGFRB (UniProt P09619)
[5] = molecular target: PDK1 (UniProt Q15118)
[6] = molecular target: PDPK1 (UniProt O15530)
[7] = molecular target: PIK4CA (UniProt P42356)
[8] = molecular target: PIK4CB (UniProt Q9UBF8)
[9] = molecular target: PLK1 (UniProt P53350)
[10] = molecular target: PRKAA1 (UniProt Q13131)
[11] = molecular target: PRKCA (UniProt P17252)
[12] = molecular target: PTK2 (UniProt Q05397)
[13] = molecular target: PTK2B (UniProt Q14289)
[14] = molecular target: RAF1 (UniProt P04049)
[15] = molecular target: RAF1_S257L (clone: RAF1_mut) (UniProt P04049)
[16] = molecular target: RET (UniProt P07949)
[17] = molecular target: RET_M918T (clone: RET_mut) (UniProt P07949)
[18] = molecular target: RIOK1 (UniProt Q9BRS2)
[19] = molecular target: RIPK1 (UniProt Q13546)
[20] = molecular target: RIPK2 (UniProt O43353)

Measured: number of time points

CN(C)c1ccc(-c2nc3ncc(Cl)c(N4CCN(CC(=O)Nc5nccs5)CC4)c3[nH]2)cc1 (2 µM)
0: all assays above

CO[C@H]1CC[C@H](N2C(=O)CNc3ncc(-c4ccc(C(C)(C)O)nc4)nc32)CC1 (2.5 µM)
0: all assays above

O=C(Nc1ccc(Cl)cc1)C1CCCN(C(=O)c2cc(C(F)(F)F)cc(C(F)(F)F)c2)C1 (stereo not given) (10 µM)
3: [12]
0: all other assays above

COc1ccc2c3n(c(=NC(=O)c4cccnc4)nc2c1OC)CCN3 (2 µM)
0: all assays above

Cc1cc(O)c2c(c1)C(=O)c1cccc(O)c1C2=O [Chrysophanol] (2 µM)
0: all assays above

CC(C)n1c(=O)n(C)c2cnc3cc(F)c(-c4ccc(OCCCN5CCCCC5)nc4)cc3c21 (10 µM)
0: all assays above

CC(O)(C#Cc1ccc2c(c1)N(c1nc(N)ncc1Cl)CC2)c1nccs1 (stereo not given) (2.5 µM)
0: all assays above

COc1cc2cc(Oc3ccc4ccc(=O)oc4c3)c(=O)oc2cc1O [Daphnoretin] (10 µM)
0: all assays above

CCc1c[nH]c2ncnc(N3CC[C@](N)(CNC(=O)c4ccc(F)cc4F)C3)c12 (10 µM)
0: all assays above

COC(=O)Nc1ccc(-c2nc(N3CCOCC3)c3cnn(C4CCN(Cc5cccnc5)CC4)c3n2)cc1 (10 µM)
3: [12]
0: all other assays above

Cc1c(Cl)cccc1S(=O)(=O)Nc1nc(NCCc2ccccc2)nc2c1CN(Cc1ccccc1)CC2 (2.5 µM)
0: all assays above

Cn1cc(-c2cc(Oc3cc(F)c(NC(=O)C4(C(=O)Nc5ccccc5)CC4)cc3F)ccn2)cn1 (2.5 µM)
1: [6]
0: all other assays above

CNC(=O)CNc1cnc2ccc(-c3ccc(OC)c(OC)c3)cc2n1 (10 µM)
0: all assays above

O=C1Nc2ccc(CN3C(=O)CSC3=O)cc2/C1=C/c1cc(CN2CCOCC2)c[nH]1 (10 µM)
0: all assays above

COc1cc(-c2oc3cc(O)cc(O)c3c(=O)c2O)ccc1O [Isorhamnetin] (10 µM)
0: all assays above

N#Cc1ccc(-c2cnc3ccc(-c4ccc(C(=O)N5CCOCC5)cc4)cn23)cc1 (10 µM)
0: all assays above

CC(Sc1nc2c(cnn2-c2cccc(Cl)c2)c(=O)[nH]1)C(N)=O (stereo not given) (10 µM)
0: all assays above

COc1ccc(Nc2ncc(C(F)(F)F)c(NC3CC3)n2)cc1OC (10 µM)
3: [15] | [20]
4: [17]
2: [1] | [6] | [7] | [8]
0: all other assays above

c1nc2c(NC3CCCCC3)nc(Nc3ccc(N4CCOCC4)cc3)nc2[nH]1 [Reversine] (10 µM)
4: [15]
1: [6] | [12]
2: [9] | [10] | [14]
0: all other assays above

Oc1c(F)cc(-c2cnccc2-c2ccc(N3CCOCC3)cc2)cc1F (10 µM)
0: all assays above

N#Cc1cnc2c(Cl)cc(NCc3cn(CCN4CCCCCC4)nn3)cc2c1Nc1ccc(F)c(Cl)c1 [Cot inhibitor-1] (10 µM)
1: [16]
0: all other assays above

c1ccc(Cn2c(-c3ccc(OC[C@H](C4CCNCC4)n4c(-c5ccccc5)nc5ccccc54)cc3)nc3ccccc32)cc1 [Deltarasin] (2.5 µM)
1: [7]
0: all other assays above

CC(C)CCN1c2nc(Nc3cc(F)c(O)c(F)c3)ncc2N(C)C(=O)C1C (stereo not given) (2.5 µM)
1: [11]
0: all other assays above

CC(C)Oc1ccc(F)c(-c2cnc(N)c(C(=O)Nc3cnccc3N3CCC[C@@H](C(=O)O)C3)n2)c1 (2 µM)
3: [20]
2: [19]
0: all other assays above

CCCCCc1ccc(/C=C/[C@H](O)[C@@H](CO)NC)cc1 [SK1-I (hydrochloride)] (10 µM)
0: all assays above

CO[C@H]1C[C@@H]2CC[C@@H](C)[C@@](O)(O2)C(=O)C(=O)N2CCCC[C@H]2C(=O)O[C@H]([C@H](C)C[C@@H]2CC[C@@H](OC(=O)C(C)(CO)CO)[C@H](OC)C2)CC(=O)[C@H](C)/C=C(\C)[C@@H](O)[C@@H](OC)C(=O)[C@H](C)C[C@H](C)/C=C/C=C/C=C/1C [Temsirolimus] (2.5 µM)
0: all assays above

O=C1NC(=O)/C(=C\c2c[nH]c(=O)c(-c3ccc(N4CCNCC4)nc3)c2)S1 [Protein kinase inhibitors 1 hydrochloride] (10 µM)
0: all assays above

COc1ccc(S(=O)(=O)Nc2cc(-c3c(O)ccc4ccccc34)c(O)c3ccccc23)cc1 (10 µM)
1: [15]
0: all other assays above

Cn1c2cc([S+](C)[O-])sc2c2cnn(Cc3cccc(N)c3)c(=O)c21 (stereo not given) (2.5 µM)
0: all assays above

O=C(Nc1cccc(-c2nc(-c3ccc(NC(=O)c4cccnc4)cc3Cl)no2)c1)Nc1ccc(NC(=O)C2CC2)c(C(F)(F)F)c1 (2.5 µM)
1: [12]
0: all other assays above

C=CC(=O)N1CC[C@@H](Oc2nc(Nc3ccc(N4CCC(N5CCN(C)CC5)CC4)cc3)c(C(N)=O)nc2CC)C1 [Naquotinib (mesylate)] (2.5 µM)
0: all assays above

O=C(O)c1cc(N(Cc2ccccc2O)Cc2cc(O)ccc2O)ccc1O [Lavendustin A] (10 µM)
1: [11] | [19]
0: all other assays above

C=CC(=O)Nc1ccc(C(=O)Nc2[nH]nc3c2CN(C(=O)N[C@H](CN(C)C)c2ccccc2)C3(C)C)cc1 (10 µM)
4: [6]
0: [2] | [3] | [11] | [13]
1: [7] | [9] | [10] | [20]
3: [15] | [19]
2: all other assays above

O=C(ON=C1c2ccccc2-c2nc3ccccc3nc21)c1ccco1 (2.5 µM)
1: [14]
0: all other assays above

Cc1c(C)c(NCC(=O)N(C)C2CCN(Cc3ccc(C(N)=O)cc3)CC2)c(C)c(C)c1N (10 µM)
0: all assays above

COc1cc(-c2cc(-c3ccc(N4CCNCC4)cc3)cnc2C)cc(OC)c1OC (10 µM)
0: all assays above

NS(=O)(=O)c1ccc(Nc2nc(-c3cccc(-c4ccccc4)c3)c3[nH]cnc3n2)cc1 (10 µM)
0: all assays above

COC(=O)Nc1ccc(-c2nc(N3CCOCC3)c3cnn(C4CCN(C(=O)OC)CC4)c3n2)cc1 (10 µM)
0: all assays above

O=C(O)[C@H]1O[C@@H](Oc2cc3oc(-c4ccc(O)cc4)cc(=O)c3c(O)c2O)[C@H](O)[C@@H](O)[C@@H]1O [Scutellarin] (10 µM)
0: all assays above

CN1CCN(c2ccc(Nc3ncc4cc(C#N)c(=O)n(C5CCCC5)c4n3)cc2)CC1 (10 µM)
3: [20]
0: all other assays above

COC(=O)/C=C/c1ccccc1 [Methyl cinnamate] (10 µM)
0: all assays above

Nc1[nH]nc2nc(-c3ccc(NS(=O)(=O)c4cc(Cl)ccc4Cl)cc3)cnc12 (10 µM)
0: all assays above

Fc1ccc2[nH]ccc2c1-c1nc(N2CCOCC2)c2sc(CN3CCN(CC4CC4)CC3)cc2n1 (10 µM)
0: all assays above

NC1(C(=O)NCCCn2cc(-c3ccc(OC(F)(F)F)cc3)c3cc(CN4CCN(Cc5c(Cl)cccc5Cl)CC4)ccc32)CCNCC1 (2.5 µM)
0: all assays above

N#Cc1ccc2ncnc(NCCc3ccccc3)c2c1 [Senexin A] (10 µM)
0: all assays above

Three structures out of the list, sorted by number of heavy atoms, rising:
COC(=O)/C=C/c1ccccc1 [Methyl cinnamate] (10 µM)
0: all assays above

Nc1[nH]nc2nc(-c3ccc(NS(=O)(=O)c4cc(Cl)ccc4Cl)cc3)cnc12 (10 µM)
0: all assays above

Fc1ccc2[nH]ccc2c1-c1nc(N2CCOCC2)c2sc(CN3CCN(CC4CC4)CC3)cc2n1 (10 µM)
0: all assays above

Following part

N#Cc1ccc(-c2cnc3[nH]cc(NC(=O)c4cccnc4)c3c2)cc1 (10 µM)
5: [12]
0: all other assays above

COc1ccc2c(Oc3ccc4c(C(=O)Nc5ccccc5N)cccc4c3)ccnc2c1 [Chiauranib] (10 µM)
1: [12]
4: [4] | [7]
0: all other assays above

NCC1CCC(CNc2nc(NCc3ccccc3OC(F)(F)F)ncc2[N+](=O)[O-])CC1 (stereo not given) [PKC-theta inhibitor] (10 µM)
4: [1] | [16] | [17] | [19]
1: [8] | [14]
2: [6] | [18]
3: [4] | [7] | [15]
0: all other assays above
